Laboratory results as given in the supplement of paper PMC7666118.
Some of the results follow.

The chains behind the UniProt entries cited, without tags or fusion partners. Where a name states a change or a piece, a line headed by the entry shows the natural chain unless it says otherwise.
UniProt Q92625: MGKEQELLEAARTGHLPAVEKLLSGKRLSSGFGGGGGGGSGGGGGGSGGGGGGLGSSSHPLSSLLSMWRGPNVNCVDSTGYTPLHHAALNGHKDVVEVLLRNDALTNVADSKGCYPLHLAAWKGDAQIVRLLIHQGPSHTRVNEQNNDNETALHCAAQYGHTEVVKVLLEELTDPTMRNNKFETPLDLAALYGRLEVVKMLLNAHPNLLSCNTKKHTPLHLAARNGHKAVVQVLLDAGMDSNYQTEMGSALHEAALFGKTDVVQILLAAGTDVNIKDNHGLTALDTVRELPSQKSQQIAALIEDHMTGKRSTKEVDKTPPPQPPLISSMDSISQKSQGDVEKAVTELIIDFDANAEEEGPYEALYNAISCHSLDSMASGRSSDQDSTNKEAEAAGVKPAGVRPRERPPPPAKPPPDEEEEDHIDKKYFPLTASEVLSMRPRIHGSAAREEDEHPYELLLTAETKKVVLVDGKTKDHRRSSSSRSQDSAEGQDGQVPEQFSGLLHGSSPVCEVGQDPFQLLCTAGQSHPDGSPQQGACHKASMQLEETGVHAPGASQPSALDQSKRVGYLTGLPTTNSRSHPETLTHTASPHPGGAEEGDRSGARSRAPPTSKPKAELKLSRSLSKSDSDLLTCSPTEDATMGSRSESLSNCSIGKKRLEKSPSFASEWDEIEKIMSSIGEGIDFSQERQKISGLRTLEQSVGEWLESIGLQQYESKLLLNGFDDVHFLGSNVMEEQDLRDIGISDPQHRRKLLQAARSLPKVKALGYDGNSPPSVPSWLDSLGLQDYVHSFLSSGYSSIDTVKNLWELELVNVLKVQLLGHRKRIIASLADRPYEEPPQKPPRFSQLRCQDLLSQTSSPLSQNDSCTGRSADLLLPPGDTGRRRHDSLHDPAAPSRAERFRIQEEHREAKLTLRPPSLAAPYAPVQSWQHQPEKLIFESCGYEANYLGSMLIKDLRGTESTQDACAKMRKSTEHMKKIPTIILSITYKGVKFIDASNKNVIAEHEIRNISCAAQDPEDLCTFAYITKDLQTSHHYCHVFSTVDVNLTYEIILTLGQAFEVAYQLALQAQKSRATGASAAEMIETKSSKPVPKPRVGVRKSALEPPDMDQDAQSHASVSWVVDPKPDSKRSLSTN
UniProt P13716: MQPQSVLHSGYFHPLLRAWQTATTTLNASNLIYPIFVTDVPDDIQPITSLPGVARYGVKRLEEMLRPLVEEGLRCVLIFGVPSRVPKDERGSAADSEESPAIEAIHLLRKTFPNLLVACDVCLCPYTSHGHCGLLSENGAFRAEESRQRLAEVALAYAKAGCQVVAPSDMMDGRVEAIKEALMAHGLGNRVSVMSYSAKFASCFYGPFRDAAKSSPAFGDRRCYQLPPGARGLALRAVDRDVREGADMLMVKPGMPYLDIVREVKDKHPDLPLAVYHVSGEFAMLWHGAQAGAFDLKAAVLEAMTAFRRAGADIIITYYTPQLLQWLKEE
UniProt Q8N2Z9: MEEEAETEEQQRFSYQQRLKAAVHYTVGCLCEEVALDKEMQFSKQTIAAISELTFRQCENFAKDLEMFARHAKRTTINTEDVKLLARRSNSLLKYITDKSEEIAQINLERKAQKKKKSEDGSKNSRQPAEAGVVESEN
UniProt Q99798: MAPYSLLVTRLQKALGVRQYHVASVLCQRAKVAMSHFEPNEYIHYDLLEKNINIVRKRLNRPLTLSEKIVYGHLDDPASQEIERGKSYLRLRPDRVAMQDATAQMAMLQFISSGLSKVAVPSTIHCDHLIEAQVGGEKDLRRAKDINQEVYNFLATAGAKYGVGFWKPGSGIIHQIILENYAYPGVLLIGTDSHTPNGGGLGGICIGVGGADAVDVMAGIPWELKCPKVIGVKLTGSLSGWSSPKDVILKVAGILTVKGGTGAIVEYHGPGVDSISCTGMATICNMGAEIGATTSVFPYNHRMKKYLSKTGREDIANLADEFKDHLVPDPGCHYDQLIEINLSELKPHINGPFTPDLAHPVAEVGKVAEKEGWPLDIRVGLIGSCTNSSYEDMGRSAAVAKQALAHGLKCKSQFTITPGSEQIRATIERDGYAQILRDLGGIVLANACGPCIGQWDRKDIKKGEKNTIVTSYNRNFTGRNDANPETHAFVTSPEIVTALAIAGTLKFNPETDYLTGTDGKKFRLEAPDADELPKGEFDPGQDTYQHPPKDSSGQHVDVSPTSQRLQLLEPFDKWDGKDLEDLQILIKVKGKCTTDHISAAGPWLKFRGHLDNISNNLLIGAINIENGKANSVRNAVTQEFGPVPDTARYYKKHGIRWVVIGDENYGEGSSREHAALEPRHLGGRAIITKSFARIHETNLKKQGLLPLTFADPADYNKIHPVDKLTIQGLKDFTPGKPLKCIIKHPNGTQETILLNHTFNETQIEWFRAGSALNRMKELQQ
UniProt Q8IZ83: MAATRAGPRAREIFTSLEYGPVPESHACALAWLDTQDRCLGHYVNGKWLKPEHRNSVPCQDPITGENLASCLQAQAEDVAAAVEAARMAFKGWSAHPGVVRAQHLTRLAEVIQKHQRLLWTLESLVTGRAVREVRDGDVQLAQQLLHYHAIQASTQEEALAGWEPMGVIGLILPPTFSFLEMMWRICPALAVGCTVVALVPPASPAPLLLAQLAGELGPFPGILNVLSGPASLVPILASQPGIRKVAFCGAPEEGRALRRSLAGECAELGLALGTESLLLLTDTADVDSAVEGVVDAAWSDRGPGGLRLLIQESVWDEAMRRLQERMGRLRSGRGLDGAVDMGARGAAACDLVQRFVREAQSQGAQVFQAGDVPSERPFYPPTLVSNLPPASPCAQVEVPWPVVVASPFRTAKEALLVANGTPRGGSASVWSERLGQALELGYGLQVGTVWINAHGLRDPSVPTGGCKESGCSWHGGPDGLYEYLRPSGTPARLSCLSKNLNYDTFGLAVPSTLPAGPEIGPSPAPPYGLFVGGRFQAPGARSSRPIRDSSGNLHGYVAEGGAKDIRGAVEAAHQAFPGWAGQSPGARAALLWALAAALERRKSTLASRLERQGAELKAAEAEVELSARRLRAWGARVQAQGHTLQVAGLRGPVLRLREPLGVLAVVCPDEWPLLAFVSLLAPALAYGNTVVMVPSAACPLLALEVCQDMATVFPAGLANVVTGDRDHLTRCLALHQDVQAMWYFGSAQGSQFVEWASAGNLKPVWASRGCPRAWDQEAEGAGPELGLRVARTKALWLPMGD
UniProt O60266: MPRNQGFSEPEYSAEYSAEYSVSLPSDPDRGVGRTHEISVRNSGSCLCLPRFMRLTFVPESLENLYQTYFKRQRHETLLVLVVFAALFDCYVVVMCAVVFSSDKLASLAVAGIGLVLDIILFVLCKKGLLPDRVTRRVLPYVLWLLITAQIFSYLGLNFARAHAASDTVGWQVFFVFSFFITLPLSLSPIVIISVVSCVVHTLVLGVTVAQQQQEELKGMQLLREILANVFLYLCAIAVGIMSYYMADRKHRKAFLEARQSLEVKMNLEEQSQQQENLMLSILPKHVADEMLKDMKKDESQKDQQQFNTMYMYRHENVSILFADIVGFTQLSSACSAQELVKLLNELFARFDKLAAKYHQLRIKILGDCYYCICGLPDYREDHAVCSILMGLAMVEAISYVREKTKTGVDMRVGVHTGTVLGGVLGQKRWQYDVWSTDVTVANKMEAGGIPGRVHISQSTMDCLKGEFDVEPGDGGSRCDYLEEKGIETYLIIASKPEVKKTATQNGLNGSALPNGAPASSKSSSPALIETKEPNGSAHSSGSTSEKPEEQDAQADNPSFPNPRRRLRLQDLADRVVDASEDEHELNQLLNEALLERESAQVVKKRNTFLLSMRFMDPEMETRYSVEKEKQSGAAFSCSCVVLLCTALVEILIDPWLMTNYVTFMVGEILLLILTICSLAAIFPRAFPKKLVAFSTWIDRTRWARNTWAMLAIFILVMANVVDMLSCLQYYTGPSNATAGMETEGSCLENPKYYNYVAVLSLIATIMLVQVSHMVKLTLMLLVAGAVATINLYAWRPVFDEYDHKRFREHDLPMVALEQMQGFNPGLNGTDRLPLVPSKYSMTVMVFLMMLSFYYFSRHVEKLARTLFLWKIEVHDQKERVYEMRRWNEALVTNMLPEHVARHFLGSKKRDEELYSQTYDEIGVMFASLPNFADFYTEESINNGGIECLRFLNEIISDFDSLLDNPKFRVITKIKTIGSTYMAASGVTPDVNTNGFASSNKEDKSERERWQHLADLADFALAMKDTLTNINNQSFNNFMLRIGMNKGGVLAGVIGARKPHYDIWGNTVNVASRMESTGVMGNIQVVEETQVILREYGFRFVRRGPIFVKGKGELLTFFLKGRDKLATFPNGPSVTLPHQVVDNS
UniProt Q10567: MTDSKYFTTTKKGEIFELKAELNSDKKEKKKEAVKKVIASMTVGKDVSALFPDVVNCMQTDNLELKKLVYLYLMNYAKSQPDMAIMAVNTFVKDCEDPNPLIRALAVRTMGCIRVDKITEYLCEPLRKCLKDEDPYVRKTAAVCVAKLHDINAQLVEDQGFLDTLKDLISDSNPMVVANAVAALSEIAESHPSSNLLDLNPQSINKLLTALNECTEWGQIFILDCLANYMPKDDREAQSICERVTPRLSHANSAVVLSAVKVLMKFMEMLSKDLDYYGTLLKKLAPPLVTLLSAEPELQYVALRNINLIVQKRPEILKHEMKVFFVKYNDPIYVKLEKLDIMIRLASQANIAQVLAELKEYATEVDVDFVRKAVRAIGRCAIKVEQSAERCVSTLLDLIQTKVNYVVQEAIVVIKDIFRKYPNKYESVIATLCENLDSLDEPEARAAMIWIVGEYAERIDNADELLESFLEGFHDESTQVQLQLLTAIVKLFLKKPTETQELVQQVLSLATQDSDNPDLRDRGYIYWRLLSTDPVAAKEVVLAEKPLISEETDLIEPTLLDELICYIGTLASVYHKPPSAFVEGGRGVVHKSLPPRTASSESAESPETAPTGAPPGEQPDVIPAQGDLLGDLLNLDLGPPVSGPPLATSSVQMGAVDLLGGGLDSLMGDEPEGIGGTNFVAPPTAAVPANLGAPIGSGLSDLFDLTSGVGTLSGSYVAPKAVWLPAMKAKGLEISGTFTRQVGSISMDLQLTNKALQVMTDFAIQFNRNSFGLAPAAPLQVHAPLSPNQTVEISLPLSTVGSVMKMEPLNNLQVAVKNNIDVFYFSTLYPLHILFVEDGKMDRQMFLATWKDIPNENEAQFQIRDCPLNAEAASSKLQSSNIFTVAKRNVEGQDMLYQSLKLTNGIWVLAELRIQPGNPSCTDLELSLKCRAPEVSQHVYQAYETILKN
UniProt Q53H12: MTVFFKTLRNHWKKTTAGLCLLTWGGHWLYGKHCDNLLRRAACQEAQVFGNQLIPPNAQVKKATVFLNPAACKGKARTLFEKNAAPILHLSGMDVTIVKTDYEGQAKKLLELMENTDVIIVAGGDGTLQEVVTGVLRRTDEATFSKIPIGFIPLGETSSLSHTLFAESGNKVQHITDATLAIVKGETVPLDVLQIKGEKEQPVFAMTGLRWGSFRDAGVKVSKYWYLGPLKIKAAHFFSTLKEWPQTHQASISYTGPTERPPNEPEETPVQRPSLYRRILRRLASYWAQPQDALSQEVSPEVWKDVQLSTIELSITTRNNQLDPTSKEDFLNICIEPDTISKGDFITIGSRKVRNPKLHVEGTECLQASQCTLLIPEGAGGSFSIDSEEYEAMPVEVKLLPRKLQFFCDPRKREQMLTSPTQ
UniProt Q9BRR9: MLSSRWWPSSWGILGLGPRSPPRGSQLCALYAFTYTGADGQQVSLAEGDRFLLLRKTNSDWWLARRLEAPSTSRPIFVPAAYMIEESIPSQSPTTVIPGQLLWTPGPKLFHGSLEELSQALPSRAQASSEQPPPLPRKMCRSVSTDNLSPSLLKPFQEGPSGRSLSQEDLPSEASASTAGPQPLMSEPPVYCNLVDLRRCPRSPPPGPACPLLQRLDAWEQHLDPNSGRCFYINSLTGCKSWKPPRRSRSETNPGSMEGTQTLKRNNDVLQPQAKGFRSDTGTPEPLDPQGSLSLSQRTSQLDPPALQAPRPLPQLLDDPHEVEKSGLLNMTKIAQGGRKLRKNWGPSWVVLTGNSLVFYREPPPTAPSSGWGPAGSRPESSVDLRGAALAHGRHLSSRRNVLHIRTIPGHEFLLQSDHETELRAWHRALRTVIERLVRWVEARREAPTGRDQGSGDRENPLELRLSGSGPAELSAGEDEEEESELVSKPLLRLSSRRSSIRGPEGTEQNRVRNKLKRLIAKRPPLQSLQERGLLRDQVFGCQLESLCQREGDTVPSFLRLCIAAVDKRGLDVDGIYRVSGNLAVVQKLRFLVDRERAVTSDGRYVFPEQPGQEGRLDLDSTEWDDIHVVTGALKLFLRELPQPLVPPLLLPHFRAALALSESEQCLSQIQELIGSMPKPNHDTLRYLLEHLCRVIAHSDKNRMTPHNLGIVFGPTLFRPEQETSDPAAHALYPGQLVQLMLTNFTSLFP

What follows are targets tested with COc1ccc(Cn2ccc3ccc(C(=O)NO)cc32)cc1 (assay: dose-dependent thermal stabilisation call (2D-TPP, DLPTP, 10% FDR) (binary (1 = stabilised)); higher = stabilised by the compound). Conditions: system: HL-60 intact cells; concentration range 0.04-10 µM.
In the case of ANKS1A (UniProt Q92625), the “dose-dependent thermal stabilisation call” value is reported as inactive: 0.
With ACTB (UniProt P60709) the “dose-dependent thermal stabilisation call” value was inactive: 0.
In the case of ALAD (UniProt P13716), the “dose-dependent thermal stabilisation call” value is reported as inactive: 0.
With ACP2 (UniProt P11117) the “dose-dependent thermal stabilisation call” value was inactive: 0.
ADRM1 (UniProt Q16186) was tested, and the “dose-dependent thermal stabilisation call” value was inactive: 0.
In the case of ARF4 (UniProt P18085), the “dose-dependent thermal stabilisation call” value is reported as inactive: 0.
In the case of ANKRD17 (UniProt O75179), the “dose-dependent thermal stabilisation call” value is reported as inactive: 0.
For AP2A1 (UniProt O95782), the “dose-dependent thermal stabilisation call” value was inactive: 0.
For APITD1 (UniProt Q8N2Z9), the “dose-dependent thermal stabilisation call” value was inactive: 0.
For ANP32A (UniProt P39687), the “dose-dependent thermal stabilisation call” value was inactive: 0.
For ARID3A (UniProt Q99856), the “dose-dependent thermal stabilisation call” value was inactive: 0.
For ACO2 (UniProt Q99798), the “dose-dependent thermal stabilisation call” value was inactive: 0.
For APEX1 (UniProt P27695), the “dose-dependent thermal stabilisation call” value was inactive: 0.
In the case of ACOX3 (UniProt O15254), the “dose-dependent thermal stabilisation call” value is reported as active: 1.
In the case of ALDH16A1 (UniProt Q8IZ83), the “dose-dependent thermal stabilisation call” value is reported as inactive: 0.
In the case of ALKBH5 (UniProt Q6P6C2), the “dose-dependent thermal stabilisation call” value is reported as inactive: 0.
With AP1GBP1 (UniProt Q9UMZ2) the “dose-dependent thermal stabilisation call” value was inactive: 0.
With ANKRD54 (UniProt Q6NXT1) the “dose-dependent thermal stabilisation call” value was inactive: 0.
ACSF2 (UniProt Q96CM8) was tested, and the “dose-dependent thermal stabilisation call” value was inactive: 0.
In the case of ANKRD13A (UniProt Q8IZ07), the “dose-dependent thermal stabilisation call” value is reported as inactive: 0.
APAF1 (UniProt O14727) was tested, and the “dose-dependent thermal stabilisation call” value was inactive: 0.
With AP1G2 (UniProt O75843) the “dose-dependent thermal stabilisation call” value was inactive: 0.
With ARIH1 (UniProt Q9Y4X5) the “dose-dependent thermal stabilisation call” value was inactive: 0.
With ADCY3 (UniProt O60266) the “dose-dependent thermal stabilisation call” value was inactive: 0.
In the case of AP1B1 (UniProt Q10567), the “dose-dependent thermal stabilisation call” value is reported as inactive: 0.
For ALDH9A1 (UniProt P49189), the “dose-dependent thermal stabilisation call” value was inactive: 0.
In the case of ACTL6A (UniProt O96019), the “dose-dependent thermal stabilisation call” value is reported as inactive: 0.
AOF1 (UniProt Q8NB78) was tested, and the “dose-dependent thermal stabilisation call” value was inactive: 0.
In the case of ARFIP1 (UniProt P53367), the “dose-dependent thermal stabilisation call” value is reported as inactive: 0.
In the case of ACTR3B (UniProt Q9P1U1), the “dose-dependent thermal stabilisation call” value is reported as inactive: 0.
With AP1S1 (UniProt P61966) the “dose-dependent thermal stabilisation call” value was inactive: 0.
With ARFGAP3 (UniProt Q9NP61) the “dose-dependent thermal stabilisation call” value was inactive: 0.
With AGK (UniProt Q53H12) the “dose-dependent thermal stabilisation call” value was inactive: 0.
For ADAT2 (UniProt Q7Z6V5), the “dose-dependent thermal stabilisation call” value was inactive: 0.
ARHGAP9 (UniProt Q9BRR9) was tested, and the “dose-dependent thermal stabilisation call” value was inactive: 0.
AP2M1 (UniProt Q96CW1) was tested, and the “dose-dependent thermal stabilisation call” value was inactive: 0.
For ARAF (UniProt P10398), the “dose-dependent thermal stabilisation call” value was inactive: 0.
